PubChem BioAssay AID720710, VTT Finland | 2013
Purpose: 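siRNAs sensitising CCNE1-overexpressing U-2 OS cells to replication stress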 (primary screen). Cell system: human U-2 OS bone cancer cells, parental and a cyclin E (CCNE1) overexpressing line. Reagent: single siRNA against human genes, 1 µM siRNA in the printed spot mix. Duration: 67 h. Treatment: half the arrays: hydroxyurea 2 mM for 16 h, then 3 h recovery; other arrays untreated. Detection: 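EdU click signal imaged per DAPI-stained nucleus at 67 h; each spot divided by its subgrid median, then z-scored relative to non-targeting control spots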. Reading the numbers: EdU z-score, cyclin E line, hydroxyurea and EdU z-score, parental, hydroxyurea and EdU z-score, cyclin E line, untreated and EdU z-score, parental, untreated: higher = more DNA synthesis than non-targeting controls.
The deposit covers about 1,380 reagents; below is a part drawn at random. 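One array per condition without replicates; hydroxyurea arrays received 2 mM for 16 h plus 3 h recovery.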 Reagents against one gene are numbered here.

gene symbol,reagent no.,"EdU z-score, cyclin E line, hydroxyurea","EdU z-score, parental, hydroxyurea","EdU z-score, cyclin E line, untreated","EdU z-score, parental, untreated"
"ERCC2 (ERCC excision repair 2, TFIIH core complex helicase subunit)",1,-1.05,-1.23,0.211,-0.687
"ERCC2 (ERCC excision repair 2, TFIIH core complex helicase subunit)",2,-0.258,3.52,0.843,-0.207
NSD1 (nuclear receptor binding SET domain protein 1),1,-0.647,-1.27,-1.21,0.0993
NSD1 (nuclear receptor binding SET domain protein 1),2,-0.277,2.7,-1.07,0.101
SSBP1 (single stranded DNA binding protein 1),1,-0.449,-0.157,-1.61,0.211
SSBP1 (single stranded DNA binding protein 1),2,-0.311,0.233,0.48,0.289
DFFB (DNA fragmentation factor subunit beta),1,-0.858,-3.83,0.122,-1.41
DFFB (DNA fragmentation factor subunit beta),2,0.309,1.42,2.17,0.316
NPM1 (nucleophosmin 1),1,-2.45,1.08,-6.32,0.483
NPM1 (nucleophosmin 1),2,0.718,1.64,-1.8,0.626
LOC644992,1,-0.21,-0.158,-3.7,-0.691
LOC644992,2,1.31,0.193,1.19,1.04
TIPIN (TIMELESS interacting protein),1,-0.582,-0.41,-1.44,0.12
TIPIN (TIMELESS interacting protein),2,-0.282,4.95,-0.929,0.916
RRM2 (ribonucleotide reductase regulatory subunit M2),1,0.0824,-0.138,-1.27,0.899
RRM2 (ribonucleotide reductase regulatory subunit M2),2,0.683,0.518,-1.21,1.2
LOC649445,1,-1.93,-0.597,-1.51,-0.322
LOC649445,2,-1.48,0.276,-0.211,0.232
XRCC3 (X-ray repair cross complementing 3),1,-1.03,-4.7,-1.43,-0.543
XRCC3 (X-ray repair cross complementing 3),2,-0.706,2.72,0.029,1.46
UBE2I (ubiquitin conjugating enzyme E2 I),1,-3.29,-0.544,-3.13,-0.213
UBE2I (ubiquitin conjugating enzyme E2 I),2,-0.0378,0.367,0.37,-0.0131
HLTF (helicase like transcription factor),1,-0.068,-1.97,-2.26,-0.844
HLTF (helicase like transcription factor),2,0.74,2.94,1.19,0.0468
"ESPL1 (extra spindle pole bodies like 1, separase)",1,-1.34,1.41,-1.81,-2.56
"ESPL1 (extra spindle pole bodies like 1, separase)",2,1.24,1.85,-0.974,1.12
GADD45G (growth arrest and DNA damage inducible gamma),1,1.69,-0.487,-1.71,-0.629
GADD45G (growth arrest and DNA damage inducible gamma),2,2.21,1.08,-1.34,-0.137

Ordered by “EdU z-score, cyclin E line, hydroxyurea” (lowest first): 11 of the entries above
gene symbol,reagent no.,"EdU z-score, cyclin E line, hydroxyurea","EdU z-score, parental, hydroxyurea","EdU z-score, cyclin E line, untreated","EdU z-score, parental, untreated"
UBE2I (ubiquitin conjugating enzyme E2 I),1,-3.29,-0.544,-3.13,-0.213
LOC649445,1,-1.93,-0.597,-1.51,-0.322
LOC649445,2,-1.48,0.276,-0.211,0.232
XRCC3 (X-ray repair cross complementing 3),1,-1.03,-4.7,-1.43,-0.543
XRCC3 (X-ray repair cross complementing 3),2,-0.706,2.72,0.029,1.46
TIPIN (TIMELESS interacting protein),1,-0.582,-0.41,-1.44,0.12
TIPIN (TIMELESS interacting protein),2,-0.282,4.95,-0.929,0.916
HLTF (helicase like transcription factor),1,-0.068,-1.97,-2.26,-0.844
UBE2I (ubiquitin conjugating enzyme E2 I),2,-0.0378,0.367,0.37,-0.0131
RRM2 (ribonucleotide reductase regulatory subunit M2),1,0.0824,-0.138,-1.27,0.899
RRM2 (ribonucleotide reductase regulatory subunit M2),2,0.683,0.518,-1.21,1.2

Next results follow:
gene symbol,reagent no.,"EdU z-score, cyclin E line, hydroxyurea","EdU z-score, parental, hydroxyurea","EdU z-score, cyclin E line, untreated","EdU z-score, parental, untreated"
LOC642954,1,-0.575,0.253,-1.1,-0.675
LOC642954,2,2.16,1.03,-0.275,0.135
OGG1 (8-oxoguanine DNA glycosylase),1,-1.19,-2.64,-0.402,-0.00523
OGG1 (8-oxoguanine DNA glycosylase),2,0.618,-1.36,-0.325,0.577
"ERCC8 (ERCC excision repair 8, CSA ubiquitin ligase complex subunit)",1,-0.0303,-3.59,-1.69,-1.14
"ERCC8 (ERCC excision repair 8, CSA ubiquitin ligase complex subunit)",2,0.0326,1.51,-1.12,2.24
KIN (Kin17 DNA and RNA binding protein),1,-0.869,0.198,-0.955,0.411
KIN (Kin17 DNA and RNA binding protein),2,0.877,1.44,-0.00781,0.907
TERF1 (telomeric repeat binding factor 1),1,0.13,-2.75,-1.23,-2.6
TERF1 (telomeric repeat binding factor 1),2,1.23,0.524,-0.827,0.754
HMGB1 (high mobility group box 1),1,0.0689,-1.82,-2.89,-0.553
HMGB1 (high mobility group box 1),2,1.57,-0.192,-2.18,1.16
H2BC15 (H2B clustered histone 15),1,0.103,-1.27,-0.984,0.402
H2BC15 (H2B clustered histone 15),2,1.16,0.645,-0.12,0.479
TRIM28 (tripartite motif containing 28),1,-1.67,-5.07,-0.937,0.593
TRIM28 (tripartite motif containing 28),2,-0.213,-1.04,0.502,1.71
"PRKDC (protein kinase, DNA-activated, catalytic subunit)",1,-2.01,-0.317,-1.39,-0.767
"PRKDC (protein kinase, DNA-activated, catalytic subunit)",2,0.58,1.28,-0.844,-0.398
"ERCC1 (ERCC excision repair 1, endonuclease non-catalytic subunit)",1,-2.04,-2.36,-3.12,-2.29
"ERCC1 (ERCC excision repair 1, endonuclease non-catalytic subunit)",2,-0.466,-0.707,-0.65,1.52
PPP2CA (protein phosphatase 2 catalytic subunit alpha),1,-1.45,0.729,-0.342,-3.67
PPP2CA (protein phosphatase 2 catalytic subunit alpha),2,3.36,1.12,0.268,0.744
CBX1 (chromobox 1),1,-0.697,-1.76,-0.679,-1.04
CBX1 (chromobox 1),2,0.575,-0.613,0.801,1.34
ANKRD17 (ankyrin repeat domain 17),1,0.22,-0.818,-2.13,-3.45
ANKRD17 (ankyrin repeat domain 17),2,1.53,0.44,-0.973,-1.11
NSMCE2 (NSE2 SUMO ligase component of SMC5/6 complex),1,0.429,-1.66,-1.68,-0.512
NSMCE2 (NSE2 SUMO ligase component of SMC5/6 complex),2,1.02,2.17,-0.662,-0.117
HDAC6 (histone deacetylase 6),1,-0.752,-1.96,-0.578,-0.0961
HDAC6 (histone deacetylase 6),2,1.18,2.86,-0.36,0.328
POLK (DNA polymerase kappa),1,0.974,-2.15,-2.6,-0.194
POLK (DNA polymerase kappa),2,2.06,-1.32,-0.254,0.181
CEP250 (centrosomal protein 250),1,-0.397,-0.503,-1.61,-0.575
CEP250 (centrosomal protein 250),2,-0.258,3.43,0.303,4.59
ASTE1 (asteroid structure-specific endonuclease 1),1,-0.623,-2.36,-1.04,-2.07
ASTE1 (asteroid structure-specific endonuclease 1),2,-0.567,1.83,-0.438,-0.568
BRCC3 (BRCA1/BRCA2-containing complex subunit 3),1,-0.519,-0.932,-0.773,0.934
BRCC3 (BRCA1/BRCA2-containing complex subunit 3),2,2.93,-0.321,-0.661,1.34
EGF (epidermal growth factor),1,-0.959,0.222,-0.806,-0.435
EGF (epidermal growth factor),2,0.813,1.67,1.19,0.0366
ZWINT (ZW10 interacting kinetochore protein),1,-0.493,-1.27,-5.39,-0.307
ZWINT (ZW10 interacting kinetochore protein),2,0.591,-0.209,-0.0121,0.303
SPHAR (retired record),1,0.522,1.8,-4.45,-0.809
SPHAR (retired record),2,1.57,2.81,-0.307,0.187
KDM4A (lysine demethylase 4A),1,-2.06,0.508,-0.808,-1.64
KDM4A (lysine demethylase 4A),2,0.0199,1.61,-0.457,1.42
